Results are given in words; binding and its absence hold for the method and conditions named. Some binding calls cover weakened binding; strength is not graded here.

Protein sequences, listed by entry. Tags and fused reporters are not part of them. Lines headed by an entry give the natural chain unless they say otherwise; changes in a name come on top.
UniProt Q9VDJ9: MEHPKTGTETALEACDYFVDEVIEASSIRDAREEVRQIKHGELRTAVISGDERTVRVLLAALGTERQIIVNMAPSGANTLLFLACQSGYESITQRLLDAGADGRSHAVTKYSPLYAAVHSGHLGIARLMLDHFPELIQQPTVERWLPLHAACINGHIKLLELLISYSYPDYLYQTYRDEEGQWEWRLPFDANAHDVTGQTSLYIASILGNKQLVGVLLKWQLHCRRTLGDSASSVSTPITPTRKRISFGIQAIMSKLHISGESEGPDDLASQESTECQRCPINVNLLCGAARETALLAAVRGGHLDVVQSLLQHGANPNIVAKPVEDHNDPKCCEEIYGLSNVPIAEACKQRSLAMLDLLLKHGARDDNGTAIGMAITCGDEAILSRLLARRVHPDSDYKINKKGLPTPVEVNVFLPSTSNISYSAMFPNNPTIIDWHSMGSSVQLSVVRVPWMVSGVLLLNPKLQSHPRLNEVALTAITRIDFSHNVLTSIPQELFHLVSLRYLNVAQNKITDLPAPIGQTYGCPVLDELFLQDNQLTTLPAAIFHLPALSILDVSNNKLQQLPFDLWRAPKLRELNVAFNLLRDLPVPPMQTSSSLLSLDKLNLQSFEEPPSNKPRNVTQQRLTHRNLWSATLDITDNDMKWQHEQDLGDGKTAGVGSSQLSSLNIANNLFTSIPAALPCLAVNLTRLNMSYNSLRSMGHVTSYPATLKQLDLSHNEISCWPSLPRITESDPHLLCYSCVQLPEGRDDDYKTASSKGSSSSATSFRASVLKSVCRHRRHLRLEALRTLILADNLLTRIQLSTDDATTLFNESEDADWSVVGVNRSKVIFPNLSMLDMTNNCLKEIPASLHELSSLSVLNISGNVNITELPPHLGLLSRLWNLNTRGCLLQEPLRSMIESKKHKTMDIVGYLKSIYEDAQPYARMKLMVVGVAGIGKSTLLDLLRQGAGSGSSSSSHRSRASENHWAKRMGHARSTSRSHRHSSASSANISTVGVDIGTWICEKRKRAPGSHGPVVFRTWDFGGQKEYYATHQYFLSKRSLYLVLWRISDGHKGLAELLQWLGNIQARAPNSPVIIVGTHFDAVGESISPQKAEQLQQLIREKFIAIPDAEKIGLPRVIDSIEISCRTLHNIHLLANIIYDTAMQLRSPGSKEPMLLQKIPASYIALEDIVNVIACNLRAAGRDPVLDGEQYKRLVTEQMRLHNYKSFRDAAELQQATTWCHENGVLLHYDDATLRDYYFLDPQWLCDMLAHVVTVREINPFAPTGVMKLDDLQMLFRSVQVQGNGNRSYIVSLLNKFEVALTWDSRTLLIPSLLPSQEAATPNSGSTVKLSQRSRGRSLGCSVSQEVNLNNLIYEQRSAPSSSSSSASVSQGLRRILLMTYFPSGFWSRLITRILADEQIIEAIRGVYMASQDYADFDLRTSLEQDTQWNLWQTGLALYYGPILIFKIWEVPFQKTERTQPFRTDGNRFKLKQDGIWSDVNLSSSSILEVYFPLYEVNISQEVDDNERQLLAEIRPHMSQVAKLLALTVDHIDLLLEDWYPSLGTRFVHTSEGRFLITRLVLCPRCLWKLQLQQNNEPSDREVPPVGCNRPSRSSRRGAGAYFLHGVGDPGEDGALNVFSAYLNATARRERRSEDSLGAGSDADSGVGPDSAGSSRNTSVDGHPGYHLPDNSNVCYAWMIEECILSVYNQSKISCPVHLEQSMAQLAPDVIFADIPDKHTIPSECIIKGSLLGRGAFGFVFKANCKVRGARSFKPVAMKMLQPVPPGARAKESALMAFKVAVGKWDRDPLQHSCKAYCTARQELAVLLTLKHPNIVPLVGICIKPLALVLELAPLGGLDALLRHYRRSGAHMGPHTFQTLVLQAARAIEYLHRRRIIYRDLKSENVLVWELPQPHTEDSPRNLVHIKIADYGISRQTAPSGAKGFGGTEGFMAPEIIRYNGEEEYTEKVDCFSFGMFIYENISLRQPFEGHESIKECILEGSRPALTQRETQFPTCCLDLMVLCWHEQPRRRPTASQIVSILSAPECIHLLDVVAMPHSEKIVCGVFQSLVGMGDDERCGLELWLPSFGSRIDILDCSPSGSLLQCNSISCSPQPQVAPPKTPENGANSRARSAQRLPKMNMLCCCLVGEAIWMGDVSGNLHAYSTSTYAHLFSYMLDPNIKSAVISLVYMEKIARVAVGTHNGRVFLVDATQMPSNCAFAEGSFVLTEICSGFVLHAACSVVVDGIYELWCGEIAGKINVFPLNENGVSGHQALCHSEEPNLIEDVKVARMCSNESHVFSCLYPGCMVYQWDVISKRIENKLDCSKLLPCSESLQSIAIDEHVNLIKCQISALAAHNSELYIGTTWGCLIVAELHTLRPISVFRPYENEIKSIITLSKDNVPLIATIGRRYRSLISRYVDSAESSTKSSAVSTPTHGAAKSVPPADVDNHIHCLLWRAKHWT

In the assay the target is endogenous Drosophila Lrrk protein tagged with HA (Lrrk^HA knockin) (Drosophila) (UniProt Q9VDJ9). The assay can be described thus: native gel or EMSA; native polyacrylamide gel of fly heads (10-day-old flies with one copy of HA-tagged Lrrk, with or without a Lrrk transgene), western blotting for HA; multimer to monomer ratio. Background: Mobility shift assays separate free from complexed probe on a gel.
Turning to “endogenous Drosophila Lrrk protein tagged with HA (Lrrk^HA knockin) (from UniProt Q9VDJ9 1-2445) (enzyme)”, the binding result is recorded as “binds”.
For the substance “Drosophila Lrrk-Y1383C (UAS-Lrrk^Y1383C transgene) (from UniProt Q9VDJ9 1-2445) (enzyme)”, the binding entry is recorded as “binds”.
Under “wild type Drosophila Lrrk (UAS-Lrrk^wt transgene) (from UniProt Q9VDJ9 1-2445) (enzyme)” stands “binds”; under “Drosophila Lrrk-R1069C (UAS-Lrrk^R1069C transgene) (from UniProt Q9VDJ9 1-2445) (enzyme)”, “binds”; under “Drosophila Lrrk-I1915T (UAS-Lrrk^I1915T transgene) (from UniProt Q9VDJ9 1-2445) (enzyme)”, “binds”.
Turning to “Drosophila Lrrk-G1914S (UAS-Lrrk^G1914S transgene) (from UniProt Q9VDJ9 1-2445) (enzyme)”, the binding entry is given as “binds”.

The values above are taken from article PMC8142648.
